Measurements: PMC8164657 (EJNMMI Research, 2021)
“And” between values parts separate entries of the source, which are not always exact repeats. Equal entries are not always repeated. Some peptides are written in HELM: one residue between dots, names in brackets for other building blocks, links after the first $.

Assay: general procedure: Fmoc solid-phase peptide synthesis; preloaded Tentagel S AC resins (Rapp Polymere)
Details: for conjugation yield: conjugation step

Substance	crude yield (whole synthesis) [%]	conjugation yield	further results
Ac-CSFWSSEWVSDDISFTWRYQPEGGR-NH2			outcome (whole synthesis): The synthesis of P0_21–45 failed repeatedly
Ac-DEVGTFKERIQWVGDPRWKDGSIVIC-NH2	22		
Ac-GSIVIHNLDYSDNGTFTCDVKNPPD-NH2			crude yield (whole synthesis, Par20): 85%; crude yield (whole synthesis, run 1): 56%
Ac-KNPPDIVGKTSQVTLYVFEKVPTRYC(Cy5)-NH2		59% isolated yield and 9% isolated yield	
Ac-KNPPDIVGKTSQVTLYVFEKVPTRYC-NH2			crude yield (whole synthesis, Par20): 50%; crude yield (whole synthesis, run 1): 14%
Ac-PEGGRDAISIFHYAKGQPYIDEVGTC-NH2	41		
Ac-TFTADVKNPPDIVGKTSQVTLYVFEKC-NH2	57		difficulty met (whole synthesis): The synthesis of P0_21–45 failed repeatedly, meaning this peptide was excluded from further evaluation.
H-IVVYTDREVHGAVGSRVTLHCSFWS-NH2	52		
PEPTIDE1{I.V.V.Y.T.D.R.E.V.H.G.A.V.G.S.R.V.T.L.H.C.S.F.W.S.[am]}|CHEM1{[MalCy5S3]}$PEPTIDE1,CHEM1,21:R3-1:R1$$$V2.0		3% isolated yield	
PEPTIDE1{[ac].D.E.V.G.T.F.K.E.R.I.Q.W.V.G.D.P.R.W.K.D.G.S.I.V.I.C.[am]}|CHEM1{[MalCy5S3]}$PEPTIDE1,CHEM1,27:R3-1:R1$$$V2.0		5% isolated yield	
PEPTIDE1{[ac].G.S.I.V.I.H.N.L.D.Y.S.D.N.G.T.F.T.C.D.V.K.N.P.P.D.[am]}|CHEM1{[MalCy5S3]}$PEPTIDE1,CHEM1,19:R3-1:R1$$$V2.0		35% isolated yield	
PEPTIDE1{[ac].P.E.G.G.R.D.A.I.S.I.F.H.Y.A.K.G.Q.P.Y.I.D.E.V.G.T.C.[am]}|CHEM1{[MalCy5S3]}$PEPTIDE1,CHEM1,27:R3-1:R1$$$V2.0		49% isolated yield	
PEPTIDE1{[ac].T.F.T.A.D.V.K.N.P.P.D.I.V.G.K.T.S.Q.V.T.L.Y.V.F.E.K.C.[am]}|CHEM1{[MalCy5S3]}$PEPTIDE1,CHEM1,28:R3-1:R1$$$V2.0		29% isolated yield	
